The test deals with T1, Pep42 (membrane-bound).
T1 sequence (peptide, C-terminal amino acid attached through a β-alanine to a cellulose membrane): DDTLWWENNWWDDED
Kind of test: peptide or protein array; 15-mer peptides covalently attached by the C-terminus to a cellulose membrane (PepSpots, two membranes, mean); 0.4 µM Cy5-labeled ubiquitin or His6-SUMO in TBS-T with 5% skim milk, 1 h, RT; fluorescence at 650 nm; both purified.

No constants are given. Whether binding was seen depends on the method and setting. Some entries that bind do so weakly or less than the wild type.

In the case of “Cy5-labeled ubiquitin (from UniProt P0CG72 1-76)”, the binding entry is “binds”.
